Assay results published in US20020127182A1, “Paramagnetic metal ion-based macrocylic magnetization transfer contrast agents and method of use” (Board of Regents, The University of Texas System, priority 2000, published 2002).
Some results were stated once for a whole list of compounds, not compound by compound.

Experiment: Bound water lifetime τM^298 of Ln(1)^3+ complexes by fitting temperature dependent 17O NMR bound water line widths; exchange limit regime Δω•τM calculated
Assay type: physicochemical
Details: 1.5 T
Experimental: A first experiment, examined the life times at 298° K, τM^298, of water molecules bound to various lanthanide-macrocylic complexes of the present invention, and having the general formula, Ln(1)^3+, where the four pendent arms R, R′, R″ and R″′ are all ethyl-acetamidoacetate (i.e., LnDOTA-4AmCE^3+), as depicted below: [drawing 4]
Individual τM^298 values were obtained by fitting the temperature dependent ^17O NMR bound water line widths according to standard exchange theory. […] Because the bulk water ^17O resonance of Yb(1) solution was relatively narrow at all temperatures, no attempt was made to determine τM^298 for this complex based on the ^17O NMR line width data from bulk water. However, a fit to the bound-water ^1H NMR line width gave a τM^298 of 5.8 μs for Yb(1), consistent with the trend shown in FIG. 3. Moreover, ^1H NMR line width fitting gave very similar results for those systems for which the bound water is directly observable.
As further illustrated in Table 1, the proton chemical shifts of bound water in these lanthanide-macrocylic complexes, δ, relative to bulk water, at 0 ppm are generally highly shifted, either more than 6 ppm downfield or upfield (i.e., ±6 ppm or more), depending upon the properties of the central lanthanide ions. […]

## CCOC(=O)CNC(=O)CN1CCN(CC(=O)NCC(=O)OCC)CCN(CC(=O)NCC(=O)OCC)CCN(CC(=O)NCC(=O)OCC)CC1.[Tb+3] [Tb(1)^3+]
  Δω●τM (exchange limit regime): greater than 1
